Source: paper PMC4463457
These are yes or no findings as the source states them, for the method shown. In cells and extracts the contact can be indirect. Some binding calls cover weakened binding; strength is not graded here.

Sequences of proteins named here, by UniProt entry; tags and fusion partners are left off. A change or cut given only in a name is not applied to a line headed by its entry. A line that says so, or that is headed by a name, gives the form on record, which may keep a tag or linker.
UniProt P35462: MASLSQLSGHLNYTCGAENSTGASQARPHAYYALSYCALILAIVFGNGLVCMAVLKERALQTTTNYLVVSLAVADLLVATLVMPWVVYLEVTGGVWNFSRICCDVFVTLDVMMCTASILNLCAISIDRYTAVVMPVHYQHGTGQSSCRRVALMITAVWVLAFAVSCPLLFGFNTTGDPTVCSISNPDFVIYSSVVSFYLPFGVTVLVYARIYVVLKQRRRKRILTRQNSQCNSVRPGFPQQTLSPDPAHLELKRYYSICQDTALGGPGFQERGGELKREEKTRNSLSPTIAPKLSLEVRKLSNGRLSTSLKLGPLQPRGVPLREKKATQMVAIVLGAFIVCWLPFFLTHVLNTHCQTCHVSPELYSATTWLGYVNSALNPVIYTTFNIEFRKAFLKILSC
Tyr-31,Tyr-32,Leu-34,Ser-35 VSV-SNAP-hD3 (P35462, form named): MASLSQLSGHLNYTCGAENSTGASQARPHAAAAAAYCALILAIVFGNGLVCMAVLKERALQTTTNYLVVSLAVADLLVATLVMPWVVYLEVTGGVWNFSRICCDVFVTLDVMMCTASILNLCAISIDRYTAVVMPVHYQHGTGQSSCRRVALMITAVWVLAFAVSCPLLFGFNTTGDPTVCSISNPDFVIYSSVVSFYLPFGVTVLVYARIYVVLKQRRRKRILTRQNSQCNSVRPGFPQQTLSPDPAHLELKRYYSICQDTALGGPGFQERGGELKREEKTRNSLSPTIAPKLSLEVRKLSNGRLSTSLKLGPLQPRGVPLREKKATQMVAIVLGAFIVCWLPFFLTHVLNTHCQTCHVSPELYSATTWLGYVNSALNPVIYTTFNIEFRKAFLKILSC
Asp-187,Ile-190,Val-194,Leu-199 VSV-SNAP-hD3 (P35462, form named): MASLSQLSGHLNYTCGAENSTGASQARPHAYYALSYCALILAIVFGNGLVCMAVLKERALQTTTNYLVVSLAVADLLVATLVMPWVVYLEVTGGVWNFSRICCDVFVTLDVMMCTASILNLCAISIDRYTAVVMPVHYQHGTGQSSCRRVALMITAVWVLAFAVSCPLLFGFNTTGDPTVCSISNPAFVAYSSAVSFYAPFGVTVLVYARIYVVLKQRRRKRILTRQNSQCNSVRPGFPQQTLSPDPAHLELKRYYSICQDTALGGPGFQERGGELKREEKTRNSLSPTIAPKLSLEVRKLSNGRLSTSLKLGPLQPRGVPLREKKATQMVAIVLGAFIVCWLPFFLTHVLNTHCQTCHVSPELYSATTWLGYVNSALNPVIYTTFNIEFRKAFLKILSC
Arg-210,Tyr-212,Val-213,Lys-216 VSV-SNAP-hD3 (P35462, form named): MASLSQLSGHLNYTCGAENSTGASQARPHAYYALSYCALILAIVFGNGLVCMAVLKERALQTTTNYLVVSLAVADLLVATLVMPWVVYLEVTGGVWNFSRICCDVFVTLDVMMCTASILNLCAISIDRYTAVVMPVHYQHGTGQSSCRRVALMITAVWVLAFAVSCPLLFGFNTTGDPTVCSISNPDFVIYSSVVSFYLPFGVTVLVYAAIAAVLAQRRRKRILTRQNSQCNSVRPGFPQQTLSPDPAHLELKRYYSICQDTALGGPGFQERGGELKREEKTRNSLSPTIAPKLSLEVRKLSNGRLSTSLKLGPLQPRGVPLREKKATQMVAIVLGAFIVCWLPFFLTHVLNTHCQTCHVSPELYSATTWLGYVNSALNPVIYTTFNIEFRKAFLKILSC

What was measured:
Experiment in all cases: FRET or BRET; htrFRET (Tag-Lite) on intact HEK293T cells transfected with varying amounts of plasmid; SNAP-Lumi4-Tb 10 nM and SNAP-Red 100 nM, 1 h at 37 °C; signal at 665 nm (energy transfer) plotted against signal at 620 nm (cell surface expression), slope of the linear regression
[1] = target: Tyr-31,Tyr-32,Leu-34,Ser-35 VSV-SNAP-hD3 (human) (UniProt P35462)
[2] = target: Asp-187,Ile-190,Val-194,Leu-199 VSV-SNAP-hD3 (human) (UniProt P35462)
[3] = target: Arg-210,Tyr-212,Val-213,Lys-216 VSV-SNAP-hD3 (human) (UniProt P35462)

Tyr-31,Tyr-32,Leu-34,Ser-35 VSV-SNAP-hD3 (from UniProt P35462 1-400) (receptor)
binding [1]: binds

Asp-187,Ile-190,Val-194,Leu-199 VSV-SNAP-hD3 (from UniProt P35462 1-400) (receptor)
binding [2]: binds

Arg-210,Tyr-212,Val-213,Lys-216 VSV-SNAP-hD3 (from UniProt P35462 1-400) (receptor)
binding [3]: binds
